PMC6995195
No constants are given. Whether binding was seen depends on the method and setting. In cells and extracts the contact can be indirect. Some binding calls cover weakened binding; strength is not graded here. Tags and fused reporters may be left off the sequences shown.

Protein sequences, listed by entry. Tags and fused reporters are not part of them.
UniProt P19474: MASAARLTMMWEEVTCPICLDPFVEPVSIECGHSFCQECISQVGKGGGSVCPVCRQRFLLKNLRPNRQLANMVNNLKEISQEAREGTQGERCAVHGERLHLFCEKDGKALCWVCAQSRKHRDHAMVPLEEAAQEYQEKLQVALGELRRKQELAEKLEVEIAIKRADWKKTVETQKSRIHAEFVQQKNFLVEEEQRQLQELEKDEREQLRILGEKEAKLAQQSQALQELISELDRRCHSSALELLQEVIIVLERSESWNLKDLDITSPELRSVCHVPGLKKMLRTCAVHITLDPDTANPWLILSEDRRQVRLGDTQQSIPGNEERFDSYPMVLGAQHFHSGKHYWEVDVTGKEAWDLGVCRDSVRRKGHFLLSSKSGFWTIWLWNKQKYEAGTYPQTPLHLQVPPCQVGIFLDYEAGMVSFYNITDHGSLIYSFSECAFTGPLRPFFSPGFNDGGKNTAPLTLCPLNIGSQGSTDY

Target: TRIM21–MYC (tripartite motif–containing 21, MYC-tagged) (UniProt P19474)
Assay: co-IP; NPC cells (HONE1) with ectopic expression of SERPINB5, TRIM21 or GMPS, MG132 10 μM for 24 h; lysate incubated with tag antibody (anti-FLAG, anti-MYC or anti-HA) at 4 °C overnight, protein A/G agarose, western blot; cells with or without X-ray radiation (6 Gy); some panels in TRIM21 LOF or SERPINB5 LOF (CRISPR knockout) cells

binding: binds
B1: SERPINB5–HA (serpin family B member 5, HA-tagged) (protein, UniProt P36952 1-375)
chain: MDALQLANSAFAVDLFKQLCEKEPLGNVLFSPICLSTSLSLAQVGAKGDTANEIGQVLHFENVKDVPFGFQTVTSDVNKLSSFYSLKLIKRLYVDKSLNLSTEFISSTKRPYAKELETVDFKDKLEETKGQINNSIKDLTDGHFENILADNSVNDQTKILVVNAAYFVGKWMKKFSESETKECPFRVNKTDTKPVQMMNMEATFCMGNIDSINCKIIELPFQNKHLSMFILLPKDVEDESTGLEKIEKQLNSESLSQWTNPSTMANAKVKLSIPKFKVEKMIDPKACLENLGLKHIFSEDTSDFSGMSETKGVALSNVIHKVCLEITEDGGDSIEVPGARILQHKDELNADHPFIYIIRHNKTRNIIFFGKFCSP
